Measurements taken from the supplement of paper PMC3334620.
In all, about 33,000 sequences were measured (“E-score (-0.5 to 0.5)”: median about -8e-05, highest 2% from about 0.23 on). This is one part of the list.

Target: T1, Nrg2 (UniProt P38082)
T1 sequence: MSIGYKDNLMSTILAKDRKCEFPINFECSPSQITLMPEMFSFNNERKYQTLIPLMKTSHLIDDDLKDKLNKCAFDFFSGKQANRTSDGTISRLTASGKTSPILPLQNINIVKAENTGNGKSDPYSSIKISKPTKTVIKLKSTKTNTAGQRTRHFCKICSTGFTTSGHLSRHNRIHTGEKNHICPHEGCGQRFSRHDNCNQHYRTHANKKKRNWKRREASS
Test: PBM E-score (8-mer binding enrichment) (E-score (-0.5 to 0.5)); higher = stronger / more preferred TF binding
Details: protein concentration: 100 nM; construct: GST-full length
How it was run: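 Bound GST-tagged yeast transcription factors, applied at about 100-200 nM to double-stranded universal all-10-mer Agilent arrays, were detected with fluorescent anti-GST. Scans were normalised with masliner. A modified Wilcoxon-Mann-Whitney statistic, the E-score, was assigned to each ungapped eight-base word pooled with its reverse complement by the Universal PBM Analysis Suite.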

Sequence	PBM E-score
CTGGATGC	-0.0825
GCCACCCA	-0.0959
ATCAATTG	0.15
CTCTTTGA	-0.118
ACCTCGCG	0.116
ATGAAGGA	0.113
GACAACGC	-0.0597
AAGAATCG	0.0744
CCTGATGA	0.165
AGCGTCAG	-0.0467
ACTTCGTA	-0.0963
ACTTACCC	0.0108
TAAGCCGA	0.072
AAGTGAGC	-0.0445
ACGACCTG	-0.231
CCCACACA	0.037
GGGGATGA	0.067
ACTTCTGA	0.148
CAAACAAC	0.14
ATAAACCC	0.307
GTAAGCTA	0.184
ACTACCTC	-0.0255
CACAAAAA	0.131
CACTAGCC	0.0235
ATGTGCAA	-0.00357

Sequence	PBM E-score
ATATGAAG	-0.0307
GCTGGTTA	0.00215
CATACCAG	-0.0622
ATGTCGCC	-0.0301
AAAGTTAG	0.226
TAAGTAAA	-0.00741
AGGAAATG	0.00239
AACAGCTC	-0.126
GCGCCCCA	0.146
AGCAGGTG	0.0329
ACGATTAT	0.0891
AACCGCCT	-0.0624
ACAGTTTG	0.0285
AAGCTAAA	0.0399
CAGTTGCG	0.152
AGCGGGCA	-0.267
CGGTCACC	-0.194
ATTTTGAG	0.0761
CAAATGGA	-0.0362
CAAGCCAG	-0.0229
AGCCTATC	-0.125
ACTGTACG	0.0573
ACACTGGT	0.015
ATAACGTG	0.0373
AATCCACC	0.0397

Sequence	PBM E-score
CGAGCCAG	0.00961
CCGTACAA	-0.0184
CGTGCTCC	-0.0464
GCTCCATA	-0.0854
ACCCCGGG	-0.056
GGGAGTCA	-0.194
ATTATCGG	-0.142
GACAGAAC	0.15
ACCCCATG	0.217
ATAACCAT	-0.0483
CTGCAAGA	0.027
CAAAGAAA	0.0775
TTCCGGAA	-0.0157
AAATCCGT	-0.0623
GACTCTCC	-0.123
GACTGACA	0.0589
AAGCTACT	0.0546
ATTCGGTG	-0.0414
AGAGTCCA	0.0952
ACCTTGCG	0.0985
CTACCGGC	-0.136
AGTCACGA	-0.102
CTCTCACA	0.124
CCGGAGGC	-0.299
CGTTACTA	-0.00046

Sequence	PBM E-score
AAGCGCTC	0.0396
CTGTGAGA	-0.0945
GTGTGCCA	-0.0505
ATTATCCG	0.102
AAGTCAAT	0.0717
ATTCCTAC	-0.03
AGCGCTAT	0.216
AAGACCGA	-0.018
GCAGTTCA	0.0604
CGTTCTGA	-0.144
CCGGGTTA	-0.137
CAGGTTTC	0.191
AGAACTCG	0.0238
ACATACCA	-0.15
CTCATTCC	0.00679
GGTCGGGA	0.114
ACGTAACT	-0.167
CCGGATCG	-0.0652
ATTGCGGG	0.13
AACGTTAT	0.0154
GATGACGC	0.0101
AGTATTTG	-0.0158
AGAGCAAC	-0.153
GAAAGACA	0.186
CGCATGGC	0.0447

Single entries from the list.
In PBM E-score, AAGCGCTC is listed with 0.0396
In PBM E-score, AAGACCGA is listed with -0.018
In PBM E-score, GATGACGC is listed with 0.0101
In PBM E-score, CCGGGTTA is listed with -0.137
In PBM E-score, ATTGCGGG is listed with 0.13
In PBM E-score, ATTCCTAC is listed with -0.03

Additional records follow:

Sequence	PBM E-score
CGGCAATC	-0.0308
TAGTAACA	0.146
AAATTGTA	0.0349
GCAGCTTA	0.00295
CCCCAAGA	0.133
ACGAGTTA	0.119
ATTGTATG	0.133
AATGCCTC	0.0271
CAGCCGTC	-0.00512
CGCTATTC	0.0887
GTCTTGTA	-0.0471
ATCTGGCC	-0.0845
ATACCGCC	-0.0749
TAATTGCA	0.108
GTCTAGAC	-0.115
CCTCCCAC	-0.139
TAATGGTA	0.00182
GTAAGTAC	-0.086
CTTATGCA	0.058
AGATTACC	0.00574
ACCAAATC	-0.0228
AGGTTCTC	0.0154
CTTCGGCA	-0.077
GCCTGCTA	-0.177
CCACCCAC	0.0597

Sequence	PBM E-score
AGTGAGGC	-0.0681
AGCACGAA	0.199
GACATATA	0.0429
TCAAACGA	-0.0605
CACGGACA	0.0646
TACTGCGA	-0.044
AGGCCCCT	0.0783
CATTTTAC	0.194
ATTCATTC	0.181
AGACATCC	-0.0665
AGCCATAA	0.0366
GAGACTTA	-0.17
AAGCGTAA	-0.133
CTCCATGA	0.072
AGAAGTCA	0.143
CTCCTGCA	-0.117
AGGCGCGC	0.0865
ATACTGTC	0.256
ATGTTTAA	-0.114
AGAGAACG	-0.0754
GAGTCTAA	-0.0937
CGGCTACG	-0.157
ACAAAGGG	-0.00555
CGACAGAA	0.158
CGTGTTAA	0.0118

Sequence	PBM E-score
GGCACACA	-0.166
CATCCGAG	-0.0567
CGTGCCAC	-0.0584
GCTTTCAA	0.0938
ACAGGCTC	-0.159
ATTGCTAG	0.007
GGAGCTCA	-0.0201
GGGGTAAC	-0.0962
CGGTTCAA	-0.0731
AGCGTGGA	-0.198
ATCACAAA	0.0935
GCCAGGGA	0.207
CTCAGAAC	0.0823
AGTCCTTA	-0.115
CCGTTAAA	-0.0965
CACAGCCG	-0.00785
AACATCGA	0.106
ATACGTTC	-0.138
CAAATCGA	-0.0125
ACTCTATC	-0.0468
GGTGCTTA	-0.105
CCGCAATA	0.206
